Experimental data reported in US5854388A, “Angiotensin IV peptides and receptor” (Washington State University Research Foundation, priority 1994, dated 1998).

By UniProt entry, the sequences of proteins in these tests, tags left out. Residues count along the entry.
UniProt F1N1Q8, 1-1022: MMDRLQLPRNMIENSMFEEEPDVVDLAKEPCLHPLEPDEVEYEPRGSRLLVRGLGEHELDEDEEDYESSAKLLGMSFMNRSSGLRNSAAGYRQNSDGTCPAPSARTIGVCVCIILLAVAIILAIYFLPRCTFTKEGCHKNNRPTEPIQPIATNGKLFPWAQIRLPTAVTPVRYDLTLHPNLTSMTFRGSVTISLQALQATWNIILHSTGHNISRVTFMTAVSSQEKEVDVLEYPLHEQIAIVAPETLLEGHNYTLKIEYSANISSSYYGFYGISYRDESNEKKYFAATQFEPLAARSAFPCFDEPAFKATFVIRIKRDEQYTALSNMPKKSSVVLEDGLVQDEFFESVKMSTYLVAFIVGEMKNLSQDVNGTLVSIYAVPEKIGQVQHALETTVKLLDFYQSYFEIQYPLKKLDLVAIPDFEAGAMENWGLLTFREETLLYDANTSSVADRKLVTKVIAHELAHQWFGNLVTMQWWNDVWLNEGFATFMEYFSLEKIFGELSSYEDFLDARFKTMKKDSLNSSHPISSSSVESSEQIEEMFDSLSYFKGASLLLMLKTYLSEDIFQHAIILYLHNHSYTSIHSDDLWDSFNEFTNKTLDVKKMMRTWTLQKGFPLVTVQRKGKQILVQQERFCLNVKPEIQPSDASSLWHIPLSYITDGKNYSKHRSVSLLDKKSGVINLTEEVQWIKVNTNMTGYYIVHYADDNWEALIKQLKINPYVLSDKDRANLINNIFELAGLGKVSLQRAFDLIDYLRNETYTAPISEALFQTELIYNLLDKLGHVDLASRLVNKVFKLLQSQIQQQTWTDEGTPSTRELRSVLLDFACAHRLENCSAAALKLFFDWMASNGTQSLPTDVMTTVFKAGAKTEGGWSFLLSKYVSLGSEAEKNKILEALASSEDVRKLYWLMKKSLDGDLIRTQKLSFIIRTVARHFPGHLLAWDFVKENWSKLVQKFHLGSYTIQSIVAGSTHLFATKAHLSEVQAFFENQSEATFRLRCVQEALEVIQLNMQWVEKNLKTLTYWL

What was measured:
rat kidney = experiment: Renal cortical blood flow (laser doppler) and arterial pressure after infusion into the renal artery; assay type: in vivo
AT4 receptor = AT4 receptor (Bos taurus, UniProt F1N1Q8); experiment: 125I-AIV binding and competition, solubilized bovine adrenal cortical receptor

**Q.** Which results are given for `CC[C@H](C)[C@H](NC(=O)[C@@H](N)Cc1ccc(O)cc1)C(=O)N[C@@H](Cc1cnc[nH]1)C(=O)N1CCC[C@H]1C(=O)N[C@@H](Cc1ccccc1)C(=O)O` [AII(4-8), YIHPF]?
**A.** effect on renal blood flow (in words) (rat kidney): no effect on renal blood flow; binding to solubilized AT4 receptor (in words) (AT4 receptor): inactive; pKi (AT4 receptor; competition of 125I-AIV binding): < 6.00

pKi: −log10 of the molar value. Structures were worked out from names or drawings and are uncertain.
